Results are given in words; binding and its absence hold for the method and conditions named. Binding seen in cells or lysates may run through a third protein. Here binding means that the protein was enriched with, or labelled near, the bait; the list need not be complete.
Target: FcεR1γ-FLAG (mouse) (UniProt P20491)
Test: affinity purification with mass spectrometry; anti-FLAG antibodies and Protein A/G magnetic beads on lysate of GFP+ RAW 264.7 cells lentivirally expressing FcεR1γ-FLAG (empty virus as control); lysis 50 mM Tris-HCl pH 7.4, 150 mM NaCl, 1% Triton X-100, 5 mM EDTA; wash with 500 mM NaCl, 0.1% Triton X-100; 4 °C; Orbitrap Exploris 480, MaxQuant LFQ

Chains of the proteins cited; added tags and fusions are not shown. Residues count along the entry.
UniProt P20491, residues 19-86: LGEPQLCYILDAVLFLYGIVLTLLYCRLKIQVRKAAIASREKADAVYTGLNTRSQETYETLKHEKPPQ

Binder	binding
ZW10 (protein, UniProt O54692 1-779) MASFVTEVLAHSGSLEKEDLGTRISRLTRRVEEIKGEVCNMISKKYSEFLPTMQSAQALVTQVDTLSNDIDQLKSRIETEVCRDLHISTVEFTNLKQQLERDSVVLTLLKQLQEFSSAIEEYNSALAEKKYIPAARHLEEAQECLKLLKSRKCFDLKMLKSLSMELTVQKQNILYHLGEDWQKLVVWKFPPAKDTSSLESCLQTELHLCTEQPEKEDMTPLPSISSVLLAFSILGELPTKLKSFGQMLLKYILKPLVTCPSLHAVIERQPSSVSICFESLTTDLEHPSPPEAFAKIRLVLEVLQKQLLDLPLDADLEIGKVPGIVLAEMLGEGIWEDLSECLIRNCLVYSIPTNSSKLQEYEEIIQSTEEFEKFLKEMRFLKGDTTDLLKYARNINSHFANKKCQDVIVAARNLMTSEIHNTVKIGPDCKEALPDLPSPDADHKLQVQTVCKAQFTDAGNLEPETSLDPQSFSLPTCRISEAVKKLMELAYQTLLEATTSSDQCAVQLFYSVRNIFHLFHDVVPTYHKENLRKLPQLAAIHHNNCMYIAHHLLTLGHQFRLRLAPILCDGTTTFVDLVPGFRRLGTECFLAQMQAQKGELLERLSSARSFANMDDEENYSAASKAVRQVLHQLRRLGIVWQDVLPVNIYCKAMGTLLNTAIAEMMSRITALEDISTEDGDRLYSLCKTVMDEGPQVFAPLSDENKNKKYQEEVPVYVSKWMPFKELMIMLQASLQEIGDRWADGKGPLATAFPSSEVKALIRALFQNTERRAAALAKIK	binds
XPOT (protein, UniProt Q9CRT8 1-963) MDEQALLGLNPNADSDFRQRALAYFEQLKISPDAWQVCAEALAQKTYSDDHVKFFCFQVLEHQVKYKYSELSTAQQQLIRETLLSWLQAQMQNPQPEKTFIRNKAAQVFALLFVTEYLTKWPKFFFDILSVVDLNPRGVDLYLRILMAIDSELVDRDVVHTSEASGLENTLIKDTMREQCIPNLVESWYQILHNYQYTNSEVLCQCLEVVGAYVSWIDLSLIANDRFINMLLGHMSVEVLREEACDCLFEIVNKGMDPVDKMKLVESLCQVLQTAGFFSIDQEEDLDFVARFSKLVNGMGQSLIVSWTKLIKNGAVKNAQEALEAIETKVPLMLQLLVHEDDDISSNIIGFCYDYLHILKQLPVLSDQQKANVEAIMLAVMKKLTYDEEYNFENEGEDEAMFVEYRKQLKLLLDRLAQVSPELVLASVRRVFSATLQNWQTTRFMEVEVAVRLLYMLAEALPVSHGAHFSGDVSKASALQDMMRTLVTSGVSSYQHTSVTLEFFETVVRYEKFFTVEPQHIPCVLMAFLDHRGLWHSSAKVRSRTAYLFSRFVKSLNKQMNPYIEEILNRIQDLLALSPPENGYQSLLSSDDQLFIYETAGALIVNSEYPAENKQALMKDLLTPLMERFKVLLEKLMMAQDEERQASLADSLNHAVGFASRTSKAFSNKQTVKQCGCSQVYLDCLQTFLPALSCPLQKDVLRSGVRTFLHRMIICLEEEVLPFIPSASEHMLKDCEAKDLQEFIPLINQITAKFKMQVSPFLQQMFMPLLHAIFEVLLRPAEDNDQSAALEKQMLRRSYFAFLQTVTGSGMSEVIANQGAENVEQVLVTIIQGAVDYPDPIAQKTCFIILSKLVELWGGKDGPVGFADFVYKHIVPACFLAPLKQTFDLADAQTVLALSECAVTLKTIHLKRGPECVQYLQQEYLPSLQVAPEIIQEFCQALQQPDAKVFKNYLKVFFQRAKP	binds

Second part, the binder after the results:

binding	Binder
binds	TNPO1 (protein, UniProt Q8BFY9 1-898) MVWDRQTKMEYEWKPDEQGLQQILQLLKESQSPDTTIQRTVQQKLEQLNQYPDFNNYLIFVLTKLKSEDEPTRSLSGLILKNNVKAHFQNFPNGVTDFIKSECLNNIGDSSPLIRATVGILITTIASKGELQNWPDLLPKLCSLLDSEDYNTCEGAFGALQKICEDSAEILDSDVLDRPLNIMIPKFLQFFKHSSPKIRSHAVACVNQFIISRTQALMLHIDSFIENLFALAGDEEAEVRKNVCRALVMLLEVRMDRLLPHMHNIVEYMLQRTQDQDENVALEACEFWLTLAEQPICKDVLVRHLPKLIPVLVNGMKYSDIDIILLKGDVEEDETIPDSEQDIRPRFHRSRTVAQQHEEDGIEEEDDDDDEIDDDDTISDWNLRKCSAAALDVLANVYRDELLPHILPLLKELLFHHEWVVKESGILVLGAIAEGCMQGMIPYLPELIPHLIQCLSDKKALVRSITCWTLSRYAHWVVSQPPDTYLKPLMTELLKRILDSNKRVQEAACSAFATLEEEACTELVPYLAYILDTLVFAFSKYQHKNLLILYDAIGTLADSVGHHLNKPEYIQMLMPPLIQKWNMLKDEDKDLFPLLECLSSVATALQSGFLPYCEPVYQRCVNLVQKTLAQAMLNNAQPEQYEAPDKDFMIVALDLLSGLAEGLGGNIEQLVARSNILTLMYQCMQDKMPEVRQSSFALLGDLTKACFQHVKPCIADFMPILGTNLNPEFISVCNNATWAIGEISIQMGIEMQPYIPMVLHQLVEIINRPNTPKTLLENTAITIGRLGYVCPQEVAPMLQQFIRPWCTSLRNIRDNEEKDSAFRGICTMISVNPSGVIQDFIFFCDAVASWINPKDDLRDMFCKILHGFKNQVGDENWRRFSDQFPLPLKERLAAFYGV
binds	IPO11 (protein, UniProt Q8K2V6 1-975) MDLNSASSVVLQVLTQATSQDTAVLKPAEEQLKQWETQPGFYSVLLNIFTNHTLDINVRWLAVLYFKHGIDRYWRRVAPHALSEEEKSTLRAGLITNFNEPINQIATQIAVLIAKVARLDCPRQWPELIPTLVESVKVQDDLRQHRALLTFYHVTKTLASKRLAADRKLFYDLASGIYNFACSLWNHHTDTFLQHVSSGNEAAVLSSLERTLLSLKVLRKLTVNGFVEPHKNMEVMGFLHGIFERLKQFLECSRSIGTDNVCRDRLEKTIILFTKVLLDFLDQHPISFTPLIQRSLEFSVSYVFTEVGEGVTFERFIVQCMNLIKMIVKNYAYKPSKNFEDSSPETLEAHKIKMAFFTYPTLTEICRRLVSHYFLLTEEELTMWEEDPEGFTVEETGGDSWKYSLRPCTEVLFIDIFHEYNQTLTPVLLEMMQTLEGPTNVEDMNALLIKDAVYNAVGLAAFELFDSVDFDQWFKTQLLPELQVSHNRYKPLRRRVIWLIGQWISVKFKSDLRPMLYEAICNLLQDQDLVVRIETATTLKLTVDDFEFRTDQFLPYLETMFTLLFQLLQQVTECDTKMHVLHVLSCVIERVNVQIRPYVGCLVQYLPLLWKQSEEHNMLRCAILTTLIHLVQGLGADSKNLYPFLLPVIQLSTDVSQPPHVYLLEDGLELWLVTLENSPCVTPELLRIFQNMSPLLELSSENLRTCFKIINGYIFLSSTEFLQTYAAGLCQSFYELLPEITTEGQVQVLKVVENALKVNPVLGPQMFQRILPCVFRGVIEGERYPVVMSIYLAVMGRVLLQNTSFFSSLLNEMGHEFNQEMDQLLGNVIEMWVDRMDNITQPERKKLSALALLSLLPSDNSVIQDKFCGIINISVEALHDVMTEDPETRTYKDCMLMSQHEEPKVTEDEEPPTEQDKRKKMLALKDPVHTVSLQQFIYEKLKAQQEILGEQGFQSLMETVDTEIVTQLQEFLQGF
binds	XPO5 (protein, UniProt Q924C1 1-1204) MEMEQVNALCEELVKAVTVMMDPSSTQRYRLEALKFCEEFKEKCPICVPCGLKLAEKTQIAIVRHFGLQILEHVVKFRWNSMSRLEKVYLKNSVMELIANGTLRILEEENHIKDVLSRIVVEMIKREWPQHWPDMLMELDTLFRQGETQRELVMFILLRLAEDVVTFQTLPTQRRRDIQQTLTQNMERILNFLLNTLQENVNKYQQMKTDSSQEAEAQANCRVSVAALNTLAGYIDWVSLNHITAENCKLVETLCLLLNEQELQLGAAECLLIAVSRKGKLEDRKRLMILFGDVAMHYILSAAQTADGGGLVEKHYLFLKRLCQVLCALGNLLCALLALDANIQTPINFGMYLESFLAFTTHPSQFLRSSTHMTWGALFRHEVLSRDPALLAVIPKYLRASMTNLVKMGFPSKTDSPSCEYSRFDFDSDEDFNAFFNSSRAQHGEVVRCVCRLDPKTSFQMAAEWLKYQLSASIDTGPVNSCSTAGTGEGGFCSIFSPSYVQWEAMTFFLESVINQMFRTLDKEELPVSDGIELLQLVLNFEIKDPLVLSCVLTNVSALFPFVTYKPAFLPQVFSKLFSFVTFESVGESKAPRTRAVRNVRRHACSSINKMCRDYPDLVLPNFDMLYSHVKQLLSNELLLTQMEKCALMEALVLVSNQFKDYERQKLFLEELMAPVVNIWLSEEMCRALSDIDSFIAYVGADLKSCDPAVEDPCGLNRARMSFCVYSILGVMRRTSWPSDLEEAKAGGFVVGYTPSGNPIFRNPCTEQILRLLDNLLALVRTHNTLYTPEMLTKMAEPFTKALDIVESEKTAILGLPQPLLEFNDHPVYRTTLERMQRFFGILYENCYHILGKAGPSMQQDFYTVEDLASQLLGSAFVNLNNIPDFRLRSMLRVFVKPLVLFCPSEHYETLISPILGPLFTYLHMRLSQKWHVINQRSILCGEDEIAEDNPESQEMLEEQLVRMLTREAMDLIMACCVSKKTADHTAAPTADGDDEEMMATEVAPSSVVELTDLGKCLMKHEDVCTALLITAFNSLTWKDTLSCQRATTQLCWPLLKQVMSGTLLADAVTWLFTSVLKGLQMHGQHDGCMASLVHLAFQIYEALRPRYLEIRAVMEQIPEINKESLDQFDCKLLNPSLQKAADKRRKDHFKRLIAGCIGKPLGEQFRKEVHIKNLPWLFKKPKPMLETEVLDSEEGGLATIFEP
binds	HACD3 (protein, UniProt Q8K2C9 1-362) METQVLTPHVYWAQRHRELYLRVELSDVQNPAISITDNVLHFKAQGHGAKGDNVYEFHLEFLDLVKPEPAYRLTQRQVNITVQKKGSHWWERLTKQEKRPLFLAPDFDRWLDESDAEMELRAKEEERLNKLRLEREGSPETLTNLKKGYLFMYNLVQLLGFSWIFVNLTVRFFILGKESFYDTFHNVADMMYFCQMLALVETLNAAIGVTSTPVLPALIQFLGRNFILFLVFGTMEEMQNKAVVFFVFYSWSAIEIFRYPFYMLSCIDMDWKVLTWLRYTMWIPLYPLGCLSEAVAVIQSIPVFNESGRFSFTLPYPVKMKVRFSFFLQVYLVMLFLGLYINFRHLYKQRRRRYGQKKKKLH
